In publication PMC5660093, “Structure of SgK223 pseudokinase reveals novel mechanisms of homotypic and heterotypic association” (Nature Communications, 2017):
Where a chain is given by its changes, count along the chain named. These are yes or no findings as the source states them, for the method shown. Binding seen in cells or lysates may run through a third protein. Tags and fused reporters may be left off the sequences shown.

By UniProt entry, the sequences of proteins in these tests, tags left out.
UniProt Q9H792: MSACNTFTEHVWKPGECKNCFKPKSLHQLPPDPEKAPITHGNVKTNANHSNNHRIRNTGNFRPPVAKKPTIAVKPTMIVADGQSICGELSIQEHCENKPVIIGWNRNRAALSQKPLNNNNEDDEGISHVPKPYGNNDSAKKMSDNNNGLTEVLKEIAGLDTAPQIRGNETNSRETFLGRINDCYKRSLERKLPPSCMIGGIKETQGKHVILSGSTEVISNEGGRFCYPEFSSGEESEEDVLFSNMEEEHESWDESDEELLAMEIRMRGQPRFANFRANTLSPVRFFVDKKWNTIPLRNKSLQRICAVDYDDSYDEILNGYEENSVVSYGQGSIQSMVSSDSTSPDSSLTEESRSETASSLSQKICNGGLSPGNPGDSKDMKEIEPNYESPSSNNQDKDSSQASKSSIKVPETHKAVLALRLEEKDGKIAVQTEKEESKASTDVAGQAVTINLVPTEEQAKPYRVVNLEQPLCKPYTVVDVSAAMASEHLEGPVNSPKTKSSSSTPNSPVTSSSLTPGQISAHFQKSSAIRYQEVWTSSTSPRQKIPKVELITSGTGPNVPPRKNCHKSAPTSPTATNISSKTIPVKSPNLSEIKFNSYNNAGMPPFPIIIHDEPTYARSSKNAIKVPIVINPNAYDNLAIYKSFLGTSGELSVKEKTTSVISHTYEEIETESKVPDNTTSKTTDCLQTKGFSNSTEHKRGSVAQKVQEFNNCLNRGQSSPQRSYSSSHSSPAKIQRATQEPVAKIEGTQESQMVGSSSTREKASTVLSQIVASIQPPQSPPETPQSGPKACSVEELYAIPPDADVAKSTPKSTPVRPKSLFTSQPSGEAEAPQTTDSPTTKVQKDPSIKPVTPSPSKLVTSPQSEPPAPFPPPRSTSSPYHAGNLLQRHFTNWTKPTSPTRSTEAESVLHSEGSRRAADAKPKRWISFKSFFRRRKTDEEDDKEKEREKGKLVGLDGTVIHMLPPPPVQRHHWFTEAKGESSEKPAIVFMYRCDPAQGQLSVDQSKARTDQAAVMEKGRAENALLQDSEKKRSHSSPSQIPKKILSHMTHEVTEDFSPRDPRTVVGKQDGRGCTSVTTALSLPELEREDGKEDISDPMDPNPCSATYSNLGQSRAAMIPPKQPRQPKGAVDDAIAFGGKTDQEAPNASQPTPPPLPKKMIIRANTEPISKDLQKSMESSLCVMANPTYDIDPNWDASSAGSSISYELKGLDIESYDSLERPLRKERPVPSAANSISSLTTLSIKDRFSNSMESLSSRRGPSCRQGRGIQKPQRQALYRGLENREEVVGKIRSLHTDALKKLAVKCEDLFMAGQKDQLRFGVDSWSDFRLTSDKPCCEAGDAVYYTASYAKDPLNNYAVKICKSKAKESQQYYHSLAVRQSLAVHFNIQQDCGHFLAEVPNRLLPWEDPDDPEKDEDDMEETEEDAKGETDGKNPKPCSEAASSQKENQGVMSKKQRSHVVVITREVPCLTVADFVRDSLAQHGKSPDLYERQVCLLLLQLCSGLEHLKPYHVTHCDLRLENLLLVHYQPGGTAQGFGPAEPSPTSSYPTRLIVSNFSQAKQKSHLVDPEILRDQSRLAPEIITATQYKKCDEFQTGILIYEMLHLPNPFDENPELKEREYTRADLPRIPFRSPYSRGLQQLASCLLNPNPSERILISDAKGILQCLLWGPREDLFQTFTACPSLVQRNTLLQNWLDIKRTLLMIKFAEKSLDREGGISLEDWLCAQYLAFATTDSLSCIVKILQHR

Experiments:
[1] = target: T1, HA-tagged FL SgK223 F1366A (MCF-10A SgK223 KO) (UniProt Q86YV5); assay: co-IP; HA-tagged FL SgK223 WT or mutants expressed in MCF-10A SgK223 KO cells; immunoprecipitation with anti-HA, blot with anti-SgK269 for the endogenous protein
T1 sequence: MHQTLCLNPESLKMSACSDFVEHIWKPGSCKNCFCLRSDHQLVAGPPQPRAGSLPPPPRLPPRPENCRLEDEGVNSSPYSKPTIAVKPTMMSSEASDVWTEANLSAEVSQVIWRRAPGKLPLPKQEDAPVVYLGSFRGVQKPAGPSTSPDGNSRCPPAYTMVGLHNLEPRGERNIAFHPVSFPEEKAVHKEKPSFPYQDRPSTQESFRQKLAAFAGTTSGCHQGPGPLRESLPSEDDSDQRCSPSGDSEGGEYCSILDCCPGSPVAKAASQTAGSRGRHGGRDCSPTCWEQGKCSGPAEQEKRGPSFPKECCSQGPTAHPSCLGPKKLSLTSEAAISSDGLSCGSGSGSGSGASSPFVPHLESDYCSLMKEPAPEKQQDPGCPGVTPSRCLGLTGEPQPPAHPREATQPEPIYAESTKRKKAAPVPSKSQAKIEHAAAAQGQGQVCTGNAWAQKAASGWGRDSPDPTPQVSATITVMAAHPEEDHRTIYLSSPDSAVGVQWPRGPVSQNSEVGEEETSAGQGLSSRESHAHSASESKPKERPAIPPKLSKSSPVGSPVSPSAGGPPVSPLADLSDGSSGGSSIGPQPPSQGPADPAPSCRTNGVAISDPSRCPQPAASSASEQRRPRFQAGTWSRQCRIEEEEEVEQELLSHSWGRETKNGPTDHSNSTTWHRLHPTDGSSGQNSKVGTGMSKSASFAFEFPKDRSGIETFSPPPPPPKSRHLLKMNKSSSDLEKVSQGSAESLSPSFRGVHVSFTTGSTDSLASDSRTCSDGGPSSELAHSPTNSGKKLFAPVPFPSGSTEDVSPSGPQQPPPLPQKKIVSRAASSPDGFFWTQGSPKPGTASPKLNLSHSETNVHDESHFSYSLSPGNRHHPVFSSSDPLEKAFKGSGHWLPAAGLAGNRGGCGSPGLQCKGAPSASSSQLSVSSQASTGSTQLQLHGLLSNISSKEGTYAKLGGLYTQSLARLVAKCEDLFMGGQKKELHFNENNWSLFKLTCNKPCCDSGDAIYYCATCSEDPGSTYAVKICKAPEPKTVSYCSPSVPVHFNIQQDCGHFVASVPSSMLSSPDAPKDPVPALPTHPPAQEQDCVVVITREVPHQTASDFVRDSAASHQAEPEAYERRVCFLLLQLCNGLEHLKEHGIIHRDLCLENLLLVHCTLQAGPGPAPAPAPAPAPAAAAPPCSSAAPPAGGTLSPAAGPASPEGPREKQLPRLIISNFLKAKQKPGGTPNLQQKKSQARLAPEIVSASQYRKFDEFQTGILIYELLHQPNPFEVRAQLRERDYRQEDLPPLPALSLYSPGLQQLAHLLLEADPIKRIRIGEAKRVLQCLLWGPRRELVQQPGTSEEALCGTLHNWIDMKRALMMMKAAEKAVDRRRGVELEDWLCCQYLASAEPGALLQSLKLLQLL

[2] = target: T2, HA-tagged FL SgK223 L955A (MCF-10A SgK223 KO) (UniProt Q86YV5); assay: as above
T2 sequence: T1 sequence with L955A, A1366F

In the case of “endogenous FL SgK269-WT (from UniProt Q9H792 1-1746)”, the binding [1] is reported as “no binding” and the binding [2] is reported as “no binding”.
